Data on 1 molecule can be found in article PMC11702068, “NEK8 promotes the progression of gastric cancer by reprogramming asparagine metabolism” (Molecular Medicine, 2025).

This assay has as its target T1, Flag-tagged NEK8 (UniProt Q86SG6).
T1 sequence: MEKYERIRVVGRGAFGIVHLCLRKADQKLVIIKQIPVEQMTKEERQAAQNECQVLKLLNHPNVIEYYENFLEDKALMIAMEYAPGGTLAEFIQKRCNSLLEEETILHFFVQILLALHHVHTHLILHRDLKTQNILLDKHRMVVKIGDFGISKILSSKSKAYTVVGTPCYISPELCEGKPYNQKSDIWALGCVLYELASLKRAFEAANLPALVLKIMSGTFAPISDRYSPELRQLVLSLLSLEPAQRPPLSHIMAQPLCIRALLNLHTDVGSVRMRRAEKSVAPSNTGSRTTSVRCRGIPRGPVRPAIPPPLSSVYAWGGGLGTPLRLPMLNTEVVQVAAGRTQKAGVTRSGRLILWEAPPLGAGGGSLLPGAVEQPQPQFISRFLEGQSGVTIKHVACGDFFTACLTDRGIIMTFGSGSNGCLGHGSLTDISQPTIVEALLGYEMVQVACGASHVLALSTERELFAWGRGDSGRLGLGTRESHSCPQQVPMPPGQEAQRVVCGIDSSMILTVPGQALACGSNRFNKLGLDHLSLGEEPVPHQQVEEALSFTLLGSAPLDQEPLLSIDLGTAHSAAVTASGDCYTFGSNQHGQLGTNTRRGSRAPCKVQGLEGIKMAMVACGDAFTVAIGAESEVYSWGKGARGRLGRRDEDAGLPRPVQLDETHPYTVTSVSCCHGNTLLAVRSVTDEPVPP
Put plainly: affinity purification with mass spectrometry; Flag-NEK8 expressed in HGC27 cells, pulled down with Flag M2 agarose beads; wash 20 mM Tris-HCl, 150 mM KCl, 1 mM DTT, 0.05% NP-40, 1 mM EDTA, 15% glycerol, 0.2 mM PMSF; SDS-PAGE, bands excised, MS.

These are yes or no findings as the source states them, for the method shown. Binding seen in cells or lysates may run through a third protein. Here binding means that the protein was enriched with, or labelled near, the bait; the list need not be complete. Where a sequence is shown, tags or fusion partners need not be part of it.

B1: asparagine synthetase (ASNS), endogenous (enzyme, UniProt P08243 1-561)
chain: MCGIWALFGSDDCLSVQCLSAMKIAHRGPDAFRFENVNGYTNCCFGFHRLAVVDPLFGMQPIRVKKYPYLWLCYNGEIYNHKKMQQHFEFEYQTKVDGEIILHLYDKGGIEQTICMLDGVFAFVLLDTANKKVFLGRDTYGVRPLFKAMTEDGFLAVCSEAKGLVTLKHSATPFLKVEPFLPGHYEVLDLKPNGKVASVEMVKYHHCRDVPLHALYDNVEKLFPGFEIETVKNNLRILFNNAVKKRLMTDRRIGCLLSGGLDSSLVAATLLKQLKEAQVQYPLQTFAIGMEDSPDLLAARKVADHIGSEHYEVLFNSEEGIQALDEVIFSLETYDITTVRASVGMYLISKYIRKNTDSVVIFSGEGSDELTQGYIYFHKAPSPEKAEEESERLLRELYLFDVLRADRTTAAHGLELRVPFLDHRFSSYYLSLPPEMRIPKNGIEKHLLRETFEDSNLIPKEILWRPKEAFSDGITSVKNSWFKILQEYVEHQVDDAMMANAAQKFPFNTPKTKEGYYYRQVFERHYPGRADWLSHYWMPKWINATDPSARTLTHYKSAVKA
Consider B1, for which the binding entry was “binds”.
